According to US9714240B2 (PharmAkea, Inc., priority 2013, dated 2017):
Structures were worked out from names or drawings and are uncertain.

Molecular target: human autotaxin (Homo sapiens, UniProt Q13822)
Experiment: Human Autotaxin Assay (choline release from LPC)
Conditions: ATX in concentrated conditioned media from Hep3B cells, substrate LPC 14:0 100 uM, absorbance at 555 nm
Protocol: ATX activity is assayed in concentrated conditioned media from Hep3B human hepatocellular carcinoma cells by measuring the amount of choline released from the substrate, lysophosphatidylcholine (LPC) as it is cleaved to LPA. Conditioned media is collected from confluent Hep3B cells and concentrated 20-fold using Centriprep-30 filter devices (Millipore). To assay for autotaxin inhibition, 10-20 μL of the concentrated conditioned media is incubated with 2.5 μL of a test compound in DMSO and 72.5-82.5 μL lyso-PLD buffer (100 mM Tris pH 9, 500 mM NaCl, 5 mM MgCl2, 5 mM CaCl2, 0.05% Triton X-100 in the presence or absence of 0.2% fatty-acid-free human serum albumin) for 15 min at 37° C. After the 15 min incubation, 5 ul of 2 mM LPC (14:0; Avanti Polar Lipids Cat#855575C) diluted in lyso-PLD buffer is added for a final concentration of 100 uM and the incubation continues for 1.5-3 hours at 37° C. 100 μl of a color mix containing 4.5 mM 4-aminoantipyrine, 2.7 mM N-ethyl-N-(2-hydroxy-3-sulfopropyl)-m-toluidine, 21 units/ml horseradish peroxidase and 3 units/ml choline oxidase in 50 mM Tris, pH 8, 4.5 mM MgCl2 is added and the incubation continued for 15 minutes at room temperature before reading the absorbance at 555 nm.

Cc1c(/C=C(\C#N)c2ccc(C(=O)O)cc2)c2ccccc2n1Cc1ccccc1F
IC50: > 10 µM
